Experimental data taken from patent US12679888B2, “IL-18 binding protein (IL-18BP) and antibodies for treating inflammatory diseases” (AB2 BIO SA, priority 2015, dated 2026).
For at least one compound, name, drawing or mass did not settle the structure.

Test system: C57BL/6J mice
Test: Four-day exacerbation/tobacco smoke mouse model (COPD exacerbation)
Type: in vivo
Settings: 3 mg/kg, data not shown
Method: The aim of the study was to determine the effect of IL-18BP, administered at three dose levels, by the sub-cutaneous route, on Polyinosinic:polycytidylic acid-induced exacerbation of tobacco-smoke induced pulmonary inflammation, in C57BL/6J mice. High level of dexamethasone, dosed orally, was included in the study as a reference agent.
Mice received either vehicle (PBS) or IL-18BP. IL-18BP was given subcutaneously to 3 groups of animals respectively at 1, 3 or 10 mg/kg 2 h prior to the initial tobacco smoke exposure from Day 1 to Day 4. Mice received orally either vehicle or dexamethasone (10 mg/kg) 1 h prior to each twice daily exposure. Mice received by intranasal administration either the vehicle or Polyinosinic:polycytidylic acid (2 mg/kg) 2 h prior to the initial air or tobacco smoke exposure on Day 4 to induce lung inflammation exacerbation. Tobacco smoke exposure was performed during the morning and afternoon as follow: Day 1 for 15 min, Day 2 for 25 min, Day 3 for 30 min and Day 4 for 30 min.
Following the above treatments, animals were terminally anaesthetised on Day 5. After that, a blood sample was taken via the sub-clavian artery (plasma) and the animals were bronchoalveloar lavaged with 3×0.4 ml of PBS for further cellular and cytokine/mediator analysis. […] Cells recovered from the BALF were counted using the Sysmex cell counter.

In the case of `C[C@@H]1C[C@H]2[C@@H]3CCC4=CC(=O)C=C[C@]4(C)[C@@]3(F)[C@@H](O)C[C@]2(C)[C@@]1(O)C(=O)CO` [dexamethasone, reference compound], the “total cell infiltration in the lung airway space” value is reported as “no sign of efficacy”.
